The list is a part of this screen's results and no random one: it is rich in T/C values a quarter to a half above the control, in often repeated tests (any T/C) and in doses without a T/C. Other doses and runs of a compound stand elsewhere. T/C: endpoint of the treated group in % of that of the vehicle group. Some entries give survivors of the animals treated and no T/C: the source holds a T/C of zero for them, seemingly a mark for toxic or unscored doses. Some doses without a T/C left all or most animals alive at the check, yet need not have been tolerated: survival well below the control is almost never listed, so the zero probably covers shortened survival too. Survivors were counted at the toxicity check, usually on the fifth day, unless a day is given; later deaths do not show. Schedules are NCI's codes, taken here to give the interval after Q, in days (D) or hours (H), and the number of doses after X. Some entries were tested several times; their values stand side by side, smallest first. Some schedules carry Z or #; the key to these is not given. Where survival is the endpoint, this PubChem deposit counts one and a half times the control or more as active, and values a quarter to a half above the control carry no call in these data; other NCI protocols may use other cut-offs. Some T/C values carry the count of animals alive at the toxicity check (mostly the fifth day); where none is given, no animal had died by that day.
Tested on: L1210 leukemia ip in BDF1 mice, survival T/C
Assay: NCI In Vivo Anticancer Drug Screen. Data for tumor model L1210 Leukemia (intraperitoneal) in B6D2F1 (BDF1) mice
Conditions: T/C endpoint: mean survival time, higher T/C = longer survival

## N=C(N)SCc1c2ccccc2c(CSC(=N)N)c2ccccc12
dose: 40.0 mg/kg/injection, schedule: Q01DX006 (iv), vehicle: carboxymethylcellulose (CMC)
  T/C: 125 % of control [5 of 6 alive]
dose: 40.0 mg/kg/injection, schedule: Q01DX006 (iv), vehicle: saline
  T/C: 125 % of control
dose: 40.0 mg/kg/injection, schedule: Q01DX Z (im), vehicle: carboxymethylcellulose (CMC)
  T/C: 142 % of control
dose: 40.0 mg/kg/injection, schedule: Q01DX Z (ip), vehicle: carboxymethylcellulose (CMC)
  T/C: 148 % of control
dose: 40.0 mg/kg/injection, schedule: Q08DX002 (ip), vehicle: saline
  T/C: 142 % of control
dose: 50.0 mg/kg/injection, schedule: Q01DX001 (ip), vehicle: carboxymethylcellulose (CMC)
  T/C: 126 % of control
dose: 50.0 mg/kg/injection, schedule: Q01DX005 (ip), vehicle: carboxymethylcellulose (CMC)
  T/C: 135 % of control
dose: 50.0 mg/kg/injection, schedule: Q01DX009 (ip), vehicle: carboxymethylcellulose (CMC)
  T/C: 135 % of control
dose: 50.0 mg/kg/injection, schedule: Q01DX009 (ip), vehicle: clinical formulation
  survivor count: 0 of 6
dose: 50.0 mg/kg/injection, schedule: Q01DX015 (ip), vehicle: clinical formulation
  survivor count: 0 of 6
dose: 50.0 mg/kg/injection, schedule: Q01DX017 (ip), vehicle: carboxymethylcellulose (CMC)
  T/C: 141 % of control
dose: 50.0 mg/kg/injection, schedule: Q03HX040 (ip), vehicle: carboxymethylcellulose (CMC)
  survivor count: 8 of 8
dose: 50.0 mg/kg/injection, schedule: Q04DX003 (ip), vehicle: carboxymethylcellulose (CMC)
  T/C: 135 % of control
dose: 50.0 mg/kg/injection, schedule: Q07DX Z (ip), vehicle: saline
  T/C: 134 % of control
dose: 50.0 mg/kg/injection, schedule: Q#A X002 (ip), vehicle: saline
  T/C: 138 % of control
dose: 60.0 mg/kg/injection, schedule: Q03DX006 (ip), vehicle: carboxymethylcellulose (CMC)
  T/C: 135 and 144 % of control
dose: 60.0 mg/kg/injection, schedule: Q08DX002 (ip), vehicle: clinical formulation
  survivor count: 0 of 6
dose: 60.0 mg/kg/injection, schedule: Q08DX002 (ip), vehicle: saline
  T/C: 137 and 142 % of control
dose: 65.0 mg/kg/injection, schedule: Q## X008 (ip), vehicle: carboxymethylcellulose (CMC)
  survivor count: 1 of 10
dose: 70.0 mg/kg/injection, schedule: Q01DX001 (ip), vehicle: carboxymethylcellulose (CMC)
  T/C: 143 % of control
dose: 70.0 mg/kg/injection, schedule: Q07DX003 (ip), vehicle: carboxymethylcellulose (CMC)
  T/C: 132 and 144 % of control
dose: 75.0 mg/kg/injection, schedule: Q03DX Z (ip), vehicle: saline
  T/C: 144 % of control
dose: 80.0 mg/kg/injection, schedule: Q01DX006 (iv), vehicle: carboxymethylcellulose (CMC)
  T/C: 135 % of control [4 of 6 alive]
dose: 80.0 mg/kg/injection, schedule: Q01DX006 (iv), vehicle: saline
  T/C: 133 % of control [5 of 6 alive]
dose: 80.0 mg/kg/injection, schedule: Q01DX Z (im), vehicle: carboxymethylcellulose (CMC)
  T/C: 126 % of control
dose: 80.0 mg/kg/injection, schedule: Q01DX Z (ip), vehicle: carboxymethylcellulose (CMC)
  T/C: 139 % of control
dose: 80.0 mg/kg/injection, schedule: Q#A X Z (ip), vehicle: carboxymethylcellulose (CMC)
  T/C: 126 % of control
dose: 82.0 mg/kg/injection, schedule: Q01DX Z (ip), vehicle: saline
  survivor count: 6 of 6
dose: 90.0 mg/kg/injection, schedule: Q08DX002 (ip), vehicle: clinical formulation
  survivor count: 0 of 6
dose: 90.0 mg/kg/injection, schedule: Q08DX002 (ip), vehicle: saline
  T/C: 129 % of control
dose: 100.0 mg/kg/injection, schedule: Q01DX001 (ip), vehicle: carboxymethylcellulose (CMC)
  T/C: 111, 123, 131, 230 % of control
dose: 100.0 mg/kg/injection, schedule: Q01DX005 (ip), vehicle: carboxymethylcellulose (CMC)
  T/C: 148 % of control
dose: 100.0 mg/kg/injection, schedule: Q01DX009 (ip), vehicle: carboxymethylcellulose (CMC)
  T/C: 143 % of control
dose: 100.0 mg/kg/injection, schedule: Q01DX009 (ip), vehicle: saline
  T/C: 129 % of control
dose: 100.0 mg/kg/injection, schedule: Q01DX015 (ip), vehicle: clinical formulation
  survivor count: 0 of 6
dose: 100.0 mg/kg/injection, schedule: Q01DX017 (ip), vehicle: carboxymethylcellulose (CMC)
  T/C: 135 % of control
dose: 100.0 mg/kg/injection, schedule: Q03HX008 (ip), vehicle: carboxymethylcellulose (CMC)
  survivor count: 10 of 10 and 8 of 8
dose: 100.0 mg/kg/injection, schedule: Q03HX008 (ip), vehicle: saline
  survivor count: 10 of 10
dose: 100.0 mg/kg/injection, schedule: Q03HX016 (ip), vehicle: carboxymethylcellulose (CMC)
  survivor count: 7 of 10
dose: 100.0 mg/kg/injection, schedule: Q03HX016 (ip), vehicle: saline
  survivor count: 9 of 10
dose: 100.0 mg/kg/injection, schedule: Q04DX003 (ip), vehicle: carboxymethylcellulose (CMC)
  T/C: 132 % of control
dose: 100.0 mg/kg/injection, schedule: Q06HX004 (ip), vehicle: carboxymethylcellulose (CMC)
  survivor count: 9 of 10
dose: 100.0 mg/kg/injection, schedule: Q08DX002 (ip), vehicle: carboxymethylcellulose (CMC)
  T/C: 126 % of control
dose: 100.0 mg/kg/injection, schedule: Q08DX002 (ip), vehicle: saline
  T/C: 149 % of control
dose: 100.0 mg/kg/injection, schedule: Q## X009 (ip), vehicle: carboxymethylcellulose (CMC)
  T/C: 139 % of control
dose: 134.0 mg/kg/injection, schedule: Q08DX002 (ip), vehicle: clinical formulation
  survivor count: 0 of 6
dose: 140.0 mg/kg/injection, schedule: Q01DX001 (ip), vehicle: carboxymethylcellulose (CMC)
  T/C: 125 and 139 % of control
dose: 140.0 mg/kg/injection, schedule: Q07DX003 (ip), vehicle: carboxymethylcellulose (CMC)
  T/C: 143 % of control

Source: PubChem BioAssay AID248 (DTP/NCI, 2004)
